Source: PubChem BioAssay AID743266 (National Center for Advancing Translational Sciences (NCATS), 2014)
Screen size: about 410,000 compounds; about 310 (0.076%) were called active. Inconclusive results, whose numbers are uncertain, are shown with a selection of clear calls. Calls follow the shape of the dose curve; as a rule, active = well fitted activation curve with a large enough effect; inconclusive = small, poorly fitted or top-dose-only effect, or another doubt; inactive = no such curve, though single readings can be large or run the other way. Where the call is inconclusive, the potency comes from a doubtful curve fit.

Amino acid sequences for entries named in this document (tags omitted). A change or cut given only in a name is not applied to a line headed by its entry.
UniProt Q03431: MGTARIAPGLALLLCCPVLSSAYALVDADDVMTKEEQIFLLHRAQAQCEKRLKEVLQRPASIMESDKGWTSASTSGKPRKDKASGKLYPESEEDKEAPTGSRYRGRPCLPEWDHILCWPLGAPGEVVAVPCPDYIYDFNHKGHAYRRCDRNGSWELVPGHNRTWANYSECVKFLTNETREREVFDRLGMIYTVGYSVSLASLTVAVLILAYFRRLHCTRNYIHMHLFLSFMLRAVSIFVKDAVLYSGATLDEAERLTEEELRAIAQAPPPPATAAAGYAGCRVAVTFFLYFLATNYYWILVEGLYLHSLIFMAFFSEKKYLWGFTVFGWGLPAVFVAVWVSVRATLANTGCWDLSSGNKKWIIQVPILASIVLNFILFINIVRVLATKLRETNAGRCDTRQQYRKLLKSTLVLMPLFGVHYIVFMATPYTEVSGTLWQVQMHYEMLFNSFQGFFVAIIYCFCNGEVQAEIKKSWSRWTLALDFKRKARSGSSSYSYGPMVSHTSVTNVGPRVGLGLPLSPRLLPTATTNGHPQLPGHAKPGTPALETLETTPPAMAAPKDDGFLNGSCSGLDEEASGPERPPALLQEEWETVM

What follows are compounds tested against Parathyroid hormone/parathyroid hormone-related peptide receptor (Homo sapiens) (UniProt Q03431) (assay: qHTS for PTHR1 Agonists: Primary Screen). Conditions: HEK293 GP2 PTHR1 cells, GloSensor cAMP luminescence, 1 h; activation: at 115 µM (top of the series) unless noted; series mostly up to 115 µM.
Outline: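 HEK-293-derived GP2 cells expressing PTHR1 and a GloSensor cAMP reporter, 3,000/well, plated overnight, given luciferin plus IBMX (each 0.5 mM as added) for 1 h at 37 °C, then compound for 1 h at 37 °C. Luminescence was read after 15 min at room temperature.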
Also: nearly all actives have a fitted effect of over 55% in size.
Potency is read from the fitted curve at half-maximal effect.

| SMILES | Potency | activation |
| --- | --- | --- |
| COc1ccc(C2NC(=O)CS2)cc1 (centres undefined) | inconclusive: 39.8 µM [activator, single point] |  |
| CCOC(=O)c1ccc(NC(=O)C2=C(C)Nc3nc(SCc4ccc(Cl)cc4)nn3C2c2ccc(OC)cc2)cc1 (centres undefined) | inconclusive: 89.1 µM [activator, partial curve, poor fit] |  |
| COc1cccc(C(=O)OCC(=O)NCCCc2ccccc2)c1 | inactive |  |
| Cc1cc(C)cc(N2CCn3c2nc2c3c(=O)n(Cc3ccc(Cl)cc3)c(=O)n2C)c1 | inconclusive: 35.5 µM [activator, partial curve, poor fit] |  |
| CC(=O)C[C@@H](O)CC(=O)[C@@H]1OC(=O)[C@H](C)C/C=C\Cc2ccccc21 | inconclusive: 100 µM [activator, single point] |  |
| CC(=O)NNc1cc(=O)c2c(=O)n(C)c(=O)n(C)c2[nH]1 | inconclusive: 12.6 µM [activator, partial curve, poor fit] |  |
| COc1cc(C(=O)NNC(=S)Nc2ccc(S(N)(=O)=O)cc2)cc(OC)c1OC | inconclusive: 35.5 µM [activator, partial curve, poor fit] |  |
| O=C(OCC(CO)OC(CO)n1ccc(=O)[nH]c1=O)c1ccccc1 (centres undefined) | inconclusive: 5.01 µM [activator, full curve, poor fit] |  |
| CC(C)NC(=O)c1ccc(-n2c(-c3ccccc3)cc3c2CCCCC3)cc1 |  | inconclusive: -37.2% [activator] |
| CC(C)C[C@@H](CN1CCC[C@@H]1CN1C(=S)NC[C@@H]1Cc1ccc(O)cc1)N1C[C@H](Cc2ccc(O)cc2)N(CC2CCCCCC2)C1=S |  | inconclusive: 42.3% [activator] |
| C[C@H](NC(=O)c1nc[nH]c1C(=O)NCc1ccccc1)C(=O)OC(C)(C)C | inactive |  |
| CN(Cc1ccccc1)c1cc(Cl)nc(N)n1 | inconclusive: 31.6 µM [activator, single point] |  |
| CN1CCC2(CC1)Nc1nc(SCc3ccc(Cl)cc3)nn1C1=C2CN(C)CC1 | inconclusive: 44.7 µM [activator, partial curve, poor fit] |  |
| CCc1ccc(-c2csc(NC(=O)C3CCCO3)c2C(=O)OC(C)C)cc1 (centres undefined) |  | inconclusive: -54.7% [activator] |
| CCOC(=O)N1CCc2c(sc3c2c(=O)n(CCc2ccccc2)c(=O)n3Cc2ccc(F)cc2)C1 |  | inconclusive: 51.1% [activator] |
| COc1ccc(C(=O)NNC(=S)NC(=O)c2ccc(Br)o2)cc1OC | inactive |  |
| COc1cccc(N2CCN(C(=O)c3ccc(-c4ccccc4)cc3)CC2)c1 | inactive |  |
| O=C(NCCO)C(=O)c1c(-c2ccccc2)cc2ccccn12 | inconclusive: 141 µM [activator, single point] |  |
| CCOC(=O)C1=C(C)NC(SCC(=O)O)=C(C#N)C1c1ccco1 (centres undefined) | inconclusive: 35.5 µM [activator, single point] |  |
| O=C(c1ccc2c(c1)OCCO2)C1CCN(S(=O)(=O)c2ccccc2F)CC1 | inconclusive: 17.8 µM [activator, partial curve, poor fit] |  |
| Cc1ccc2c(c1)C(=O)CC1(CCCCCC1)O2 | inactive |  |
| NS(=O)(=O)c1cc(C(=O)NCCc2ccccn2)ccc1Cl | inconclusive: 126 µM [activator, single point] |  |
| CCOc1ccc(C2CC(=O)c3c([nH]c(C(=O)OCc4ccccc4)c3C)C2)cc1 (centres undefined) | inconclusive: 50.1 µM [activator, partial curve, poor fit] |  |

Pulled one by one from the entries so far, two records:

| SMILES | Potency | activation |
| --- | --- | --- |
| CCOC(=O)c1ccc(NC(=O)C2=C(C)Nc3nc(SCc4ccc(Cl)cc4)nn3C2c2ccc(OC)cc2)cc1 (centres undefined) | inconclusive: 89.1 µM [activator, partial curve, poor fit] |  |
| CCOc1ccc(C2CC(=O)c3c([nH]c(C(=O)OCc4ccccc4)c3C)C2)cc1 (centres undefined) | inconclusive: 50.1 µM [activator, partial curve, poor fit] |  |

In the list so far, these contain two or more sulfur atoms:

| SMILES | Potency | activation |
| --- | --- | --- |
| COc1cc(C(=O)NNC(=S)Nc2ccc(S(N)(=O)=O)cc2)cc(OC)c1OC | inconclusive: 35.5 µM [activator, partial curve, poor fit] |  |
| CC(C)C[C@@H](CN1CCC[C@@H]1CN1C(=S)NC[C@@H]1Cc1ccc(O)cc1)N1C[C@H](Cc2ccc(O)cc2)N(CC2CCCCCC2)C1=S |  | inconclusive: 42.3% [activator] |

Remaining list, next part

| SMILES | Potency | activation |
| --- | --- | --- |
| CCOc1ccccc1-n1nnc(-c2nc(-c3ccccc3)no2)c1N | inactive |  |
| S=C1NCCOCCNC(=S)NCCOCCOCCOCCN1 |  | inconclusive: 42.6% [activator] |
| COc1ccc2c(c1OC)C(=O)N(c1ncn[nH]1)C2 | inconclusive: 35.5 µM [activator, single point] |  |
| CCOC(=O)C1(CCCc2ccccc2)CCN(Cc2cnn(C)c2)CC1 | inactive |  |
| COc1cc(OC)c(NC2c3ccccc3C(=O)N2c2cc(C)ccn2)cc1Cl (centres undefined) | inactive |  |
| C=CCNC(=O)COC(=O)CNC(=O)c1cc(Cl)cc([N+](=O)[O-])c1 | inconclusive: 79.4 µM [activator, partial curve, poor fit] |  |
| Nc1c(C(=O)NC2CC2)sc2nc3c(c(-c4ccco4)c12)CC/C3=C/c1ccco1 | inactive |  |
| Nc1ncnc(Nc2cccc(F)c2)n1 | inconclusive: 50.1 µM [activator, partial curve, poor fit] |  |
| Cc1cccc(-n2ncc3c2CCCC3NC(=O)CCc2cccnc2)c1C (centres undefined) |  | inconclusive: -83.6% [activator] |
| Cc1[nH]n(-c2ccccc2)c(=O)c1/C=N/N1CCOCC1 | inactive |  |
| COc1cccc(CNC(=O)CCc2c(C)c3cc4c(C)c(C)oc4cc3oc2=O)c1 | inactive |  |
| Cc1ccc(C)c2[nH]c(=O)c(C(c3nnnn3C(C)(C)C)N3CC=C(c4ccc(F)cc4)CC3)cc12 (centres undefined) | inactive |  |
| Cn1c(SCC(=O)NCc2ccccc2)nnc1C1CC1 | inconclusive: 8.91 µM [activator, partial curve, poor fit] |  |
| CCN1C(=O)[C@H]2[C@@H](c3ccc(-c4ccccc4)cc3)N[C@@](C)(C(=O)OC)[C@H]2C1=O | inactive |  |
| COc1ccc(NC(=O)CSc2nc3c(c(=O)n(C)c(=O)n3C)n2C)c(OC)c1 | inconclusive: 31.6 µM [activator, single point] |  |
| COc1cccc(CNC(=O)CCNS(=O)(=O)c2cccc3nsnc23)c1 | inconclusive: 14.1 µM [activator, partial curve] |  |
| O=C(Nc1nc(-c2ccncc2)cs1)c1ccc(F)cc1 |  | inconclusive: -37.9% [activator] |
| CCC1C(=O)N=C(SCC(=O)Nc2cccc3ccccc23)NC1=O (centres undefined) |  | inconclusive: 97.7% [activator] [at 57.5 µM] |
| Cc1c(C(=O)OCC(=O)N2CCCC(C)C2)oc2ccccc12 (centres undefined) | inactive |  |
| CCCC(=O)NC(c1ccc2c(c1)OCO2)c1cc(Cl)c2cccnc2c1O (centres undefined) | inactive |  |
| O=C(NCc1ccc(C(F)(F)F)cc1)c1ccc(-c2ccc(F)c(F)c2)c2ccoc12 | inactive |  |
| O=C(CN1C(=O)NC2(CCCCCC2)C1=O)N1CCCCC1 | inconclusive: 3.98 µM [activator, partial curve] |  |
| COCCCNCCCOc1ccc(Cl)cc1Br | inconclusive: 8.91 µM [activator, full curve, poor fit] |  |

| SMILES | Potency | activation |
| --- | --- | --- |
| CCc1cc(=O)oc2cc(C)cc(OCC(=O)N[C@@H](CSCc3ccccc3)C(=O)O)c12 | inconclusive: 56.2 µM [activator, single point] |  |
| COc1ccc(C(=O)O/N=C(\N)Cc2ccc(Cl)cc2)cc1OC | inconclusive: 35.5 µM [activator, partial curve, poor fit] |  |
| CCC(=O)N1N=C(c2ccc(OC)cc2)CC1c1cn(-c2ccccc2)nc1-c1cccs1 (centres undefined) | inconclusive: 17.8 µM [activator, single point] |  |
| COc1cccc(NC(=O)C2CCN(S(=O)(=O)c3ccc4c(c3)NC(=O)CO4)CC2)c1 | inactive |  |
| O=C(Nc1nc2c(s1)CCCC2)C1CCCN1C(=O)c1cccs1 (centres undefined) | inactive |  |
| Cc1[nH]n(-c2ccc([N+](=O)[O-])cc2)c(=O)c1C=NCCN1CCN(C(=O)c2cccc(F)c2)CC1 | inconclusive: 39.8 µM [activator, single point] |  |
| Cc1cccc(OCC(=O)N(Cc2ccc(C)o2)C2CCS(=O)(=O)C2)c1 (centres undefined) | inconclusive: 31.6 µM [activator, partial curve, poor fit] |  |
| COc1cccc(NC(=O)CN(C)C(=O)c2cc(-c3ccccc3)nc3ccccc23)c1 | inactive |  |
| C/C(=N\N=C1\NC(=O)C(CC(=O)Nc2ccc(Cl)cc2)S1)c1ccco1 (centres undefined) | inactive |  |
| Cc1ccccc1CNC(=O)C1CCC(=O)N(Cc2cccc(F)c2)C1 (centres undefined) |  | inconclusive: 30.6% [activator] |
| O=C(/C=C/[C@H]1O[C@@H](n2cnc3c(NC(=O)c4ccccc4)ncnc32)[C@H](O)[C@@H]1O)NCCCN1CCCC1=O |  | inconclusive: 41.8% [activator] |
| Cc1ccc(C(=O)N2CCc3cc(CNC(=O)COc4ccccc4)ccc32)cc1 | inactive |  |
| O/N=C/c1cc(Br)ccc1OCc1ccc(F)cc1 | inactive |  |
| CCn1c(SCC(=O)Nc2ccc3c(c2)OCO3)nc2c1c(=O)n(C)c(=O)n2C | inactive |  |
| Cc1cc(N2CCCCC2)nc2ccc(NC(=O)c3cccc(F)c3)cc12 | inactive |  |
| O=c1c(=O)n(-c2cccc(Cl)c2)ccn1Cc1cccc(F)c1 | inconclusive: 100 µM [activator, single point] |  |
| CCOCC(=O)Nc1ccc(-c2cn3cccnc3n2)cc1 | inconclusive: 15.8 µM [activator, partial curve] |  |
| CCOC(=O)Cn1nc(C)cc1NC(=O)c1ccncc1 | inconclusive: 126 µM [activator, single point] |  |
| O=S(=O)(c1ccc(-n2cnnn2)cc1)N(C1CCCCC1)C1CCCCC1 | inconclusive: 5.62 µM [activator, partial curve, poor fit] |  |
| CC(C)CSc1nnc2c3ccccc3n(C)c2n1 |  | inconclusive: -67.4% [activator] |
| OC1(c2ccc(Br)cc2)CN(c2ccccc2)C2=[N+]1CCS2 (centres undefined) | inactive |  |
| C/C(=N/NC(=O)CNC(=O)c1ccco1)c1ccc(Cl)cc1 | inconclusive: 7.94 µM [activator, full curve, poor fit] |  |
| CC(C)CCNC(=O)c1ccc2c(c1)NC(=O)C(CS(=O)(=O)Cc1cccc(Br)c1)N2 (centres undefined) | inconclusive: 44.7 µM [activator, partial curve, poor fit] |  |
